Experimental findings from patent US9828349B2, “1-aryl-1-hydroxy-2,3-diamino-propyl amines, 1-heteroaryl-1-hydroxy-2,3-diamino-propyl amines and related compounds having analgesic and/or immuno stimulant activity” (Allergan, Inc., priority 2005, dated 2017) are described below.

The subject of this data set is tactile allodynia (Chung model). Description: Chung model: reversal of tactile allodynia after spinal nerve ligation (von Frey hairs). The class given is in vivo. The settings on record: rat. From the text:
An art-accepted model or assay for measuring an analgesic effect of a compound in chronic pain (in particular peripheral neuropathy) is the model known as Kim and Chung 1992, Pain […], pp 355-363 (Chung model). This model involves the surgical ligation of the L5 (and optionally the L6) spinal nerves on one side in experimental animals. Rats recovering from the surgery gain weight and display a level of general activity similar to that of normal rats. However, these rats develop abnormalities of the foot, wherein the hindpaw is moderately everted and the toes are held together. More importantly, the hindpaw on the side affected by the surgery appears to become sensitive to low-threshold mechanical stimuli and will perceive pain instead of the faint sensation of touch. This sensitivity to normally non-painful touch, called “tactile allodynia”, develops within the first week after surgery and lasts for at least two months. The allodynia response includes lifting the affected hindpaw to escape from the stimulus, licking the paw and holding it in the air for many seconds. None of these responses is normally seen in the control group.
To produce the tactile allodynia, rats are anesthetized before surgery. The surgical site is shaved and prepared either with betadine or Novacaine. Incision is made from the thoracic vertebra XIII down toward the sacrum. Muscle tissue is separated from the spinal vertebra (left side) at the L4-S2 levels. […]
Tactile allodynia is assessed via von Frey hairs, which are a series of fine hairs with incremental differences in stiffness. […] The applied force has been calculated to range from 0.41 to 15.1 grams. […] The 50% paw withdrawal threshold is determined using the method of Dixon, W. J., Ann. […] Tactile allodynia is measured prior to and 15, 30, and 60 minutes after drug administration. The post-drug threshold is compared to the pre-drug threshold and the percent reversal of tactile sensitivity is calculated based on a normal threshold of 15.1 grams. […]

Each structure is given as a SMILES string.

Regarding `N[C@@H](CN1CCCC1)[C@@H](O)c1ccncc1` (racemic) [Compound 46, DL-threo-2-amino-1-(pyridin-4-yl)-3-(pyrrolidin-1-yl)propan-1-ol], under “30 μg/kg IP”, the “time post dose of peak pain reversal” value is on record as 60 min.
`CC(=O)O[C@@H](c1ccccc1)[C@H](CN1CCOCC1)NC(=O)OCc1ccccc1.Cl` [Compound 3, benzyl L-threo-1-acetoxy-3-morpholino-1-phenylpropan-2-ylcarbamate hydrochloride]: the “time post dose of peak pain reversal” value (300 μg/kg IP) was found to be 60 min.
Turning to `Cl.O=C(N[C@@H](CN1CCOCC1)[C@@H](O)c1ccccc1)OCc1ccccc1` [Compound 1, benzyl L-threo-1-hydroxy-3-morpholino-1-phenylpropan-2-ylcarbamate hydrochloride], under “300 μg/kg IP”, the “time post dose of peak pain reversal” value was determined as 30 min.
